# Reference: PubChem BioAssay AID2685 (National Center for Advancing Translational Sciences (NCATS), 2010)
# Some of the results follow. Shown are side measurements of this screen, not its main read-out; they come without a call. The list favours compounds with an active or inconclusive main result. Words in brackets tell the shape of the fitted curve; partial curves, single points and poor fits give uncertain potencies.
# Assay: qHTS Assay for Lipid Storage Modulators in Drosophila S3 Cells;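 on cell number change: cells counted by Cell Tracker Red CMTPX staining in the red channel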
# Details: BODIPY lipid droplet fluorescence, 18-24 h; for cell number change: measured here: cell count max response, cells fed with added oleic acid
# Method in brief: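 Drosophila S3 cells got compounds at several concentrations plus oleic acid (400 uM solution). Laser-scanning cytometry with 488 nm excitation read lipid droplets at 500-530 nm and cells at 575-640 nm. Percent activity was relative to 20 uM Triacsin C.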
# [1] = measured here: lipid fluorescence (Fed channel) AC50, cells fed with added oleic acid
# [2] = measured here: cell number channel AC50, cells fed with added oleic acid
SMILES,cell number change [%],AC50 [1],AC50 [2]
COc1ccc(-n2nc(C(=O)NCC(=O)N3CCOCC3)c3ccccc3c2=O)cc1Cl,-3.97,"0.58 µM [rising, single point]",
COCCOC(=O)C1=C(C)NC(=O)NC1c1c(OC)ncnc1OC (centres undefined),-17.2,"16.4 µM [falling, partial curve, poor fit]",
CCOC(=O)N1CCN(C(=O)CCn2c(=O)[nH]c3ccsc3c2=O)CC1,34.4,"8.2 µM [rising, partial curve, poor fit]","7.31 µM [rising, partial curve, poor fit]"
COc1ccc(CN2C(=NC(=O)C3CCCCC3)SC3CS(=O)(=O)CC32)cc1 (centres undefined),10.6,,
O=C(O)C1C2C=CC(O2)C1C(=O)Nc1ccc2c(c1)OCCO2 (centres undefined),31.4,,"0.116 µM [rising, full curve]"
CCOC(=O)CN1CC23C=CC(O2)C(C(=O)Nc2ccc(F)cc2)C3C1=O (centres undefined),-10.8,"0.82 µM [falling, full curve, poor fit]",
Cc1ccc2c(CN3CCN(S(=O)(=O)c4ccccc4C(F)(F)F)CC3)cc(=O)oc2c1,-3.96,"0.58 µM [rising, full curve]",
CC(C)Oc1ccc(C(=O)OCC(=O)NC(=O)NC2CCCC2)cc1,-41.5,"4.11 µM [falling, single point]","18.4 µM [falling, single point]"
COc1ccccc1CC(=O)NCCc1ccccc1,19.2,"29.1 µM [rising, single point]",
Cc1ccc(NC(=O)COC(=O)c2ccc(S(=O)(=O)NCc3ccco3)cc2)cc1,7.39,"29.1 µM [falling, single point]",
O=C(Nc1ccccc1)c1nnsc1S(=O)(=O)c1ccc(Cl)cc1,-74.9,"29.1 µM [falling, single point]","32.6 µM [falling, single point]"
Nc1ncnc2c1ncn2CCN1CCOCC1,-10.6,"0.164 µM [falling, full curve, poor fit]",
CCOc1ccc(S(=O)(=O)Nc2cc(SCC(=O)O)c(O)c3ccccc23)cc1,-27.7,,
Clc1ccc(Cn2cc(Br)cn2)cc1Cl,-34.1,"6.51 µM [rising, single point]","32.6 µM [falling, single point]"
CC(=O)CCc1oc2ccc(NC(C)=O)cc2c1-c1ccc(C)o1,-26.8,"10.3 µM [falling, partial curve, poor fit]",
COc1ccc(NC(=O)c2ccc3c(c2)N(C)CCS3)cc1,32,"29.1 µM [rising, single point]","1.64 µM [rising, partial curve, poor fit]"
Cc1cc(C)c(S(=O)(=O)N2CCN(C(=O)c3ccc4c(c3)OCO4)CC2)c(C)c1,-16.1,,
O=C(CSc1ccc(-c2ccc(Br)cc2)nn1)N1CCOCC1,-9.83,"6.51 µM [falling, single point]",
O=C(CN1C(=O)NC2(CCCCCC2)C1=O)Nc1cccc(F)c1,-20.8,"1.84 µM [falling, full curve, poor fit]",
Cc1onc(-c2c(Cl)cccc2Cl)c1C(=O)Nc1ccc(C(N)=O)cc1,-7.5,,

SMILES,cell number change [%],AC50 [1],AC50 [2]
COc1ccc2[nH]c3c(c2c1)CCN1C(=O)N([C@@H](C)C(=O)NCc2ccccc2)C(=O)[C@]31C,-2.59,,
C=CCN(C(=O)CCC(=O)Nc1cc(C)on1)C(C(=O)NC(C)(C)C)c1cccc(OC)c1OC (centres undefined),-0.613,,
O=C(Nc1ccc(N2CCN(C(=O)c3ccccc3)CC2)c(Cl)c1)c1cccnc1,-23.1,,
c1ccc(CNc2c3ccccc3nc3ccccc23)cc1,-38.3,"7.31 µM [falling, partial curve]","20.6 µM [falling, single point]"
Cc1ccc(C(C(=O)NC(C)(C)C)N(CC2CCCO2)C(=O)CCC(=O)Nc2ccccn2)cc1 (centres undefined),74.4,,"0.92 µM [rising, partial curve]"
CCOC(=O)C1CCN(C(=O)Cn2nc(C)n3c(cc4cc(F)ccc43)c2=O)CC1,-10.7,"4.61 µM [falling, single point]",
O=C(NCCN1CCOCC1)C12CC3CC(C1)CC(c1ccccc1)(C3)C2,15.8,"18.4 µM [rising, single point]","0.82 µM [rising, single point]"
Cc1ccc(S(=O)(=O)NC(C(=O)N2CCOCCOCCOCC2)c2ccccc2)cc1 (centres undefined),-10,,
CCCCCc1c(C)[nH]c2nc3ccccc3n2c1=O,9.33,,
COc1ccc(N2CCN(C(=O)c3ccc(-n4nc(C)cc4C)cc3)CC2)cc1,,"0.58 µM [rising, single point]",
Cc1cccc(NC(=O)CSCC(=O)Nc2cc(S(=O)(=O)N3CCOCC3)ccc2N2CCCC2)c1,7.49,,
CC(=O)NC12CC3CC(C1)CC(C(=O)N1CCN(C(=O)c4ccco4)CC1)(C3)C2,6.22,"7.31 µM [falling, partial curve, poor fit]","6.51 µM [falling, single point]"
C=CCN1C(=O)C(CC(=O)O)SC1=Nc1ccc(C(=O)O)cc1 (centres undefined),-102,,"23.1 µM [falling, single point]"
O=C(NN1C(=O)C2C3C=CC([C@@H]2C1=O)C31CC1)c1ccccc1 (some centres undefined),-6.96,"0.651 µM [rising, partial curve, poor fit]",
CC1CCCN(c2ccc(/C=C(\C#N)c3nn(-c4ccccc4)c(N)c3C#N)cc2[N+](=O)[O-])C1 (centres undefined),-24.3,"29.1 µM [falling, single point]",
CCOc1cc2[nH]c(=O)n(CCCCC(=O)N3CCCCCC3)c(=O)c2cc1OCC,-23.5,"18.4 µM [falling, partial curve]",
COc1cc(C(=S)N2CCOCC2)cc(OC)c1OS(=O)(=O)c1ccc(C)cc1,-14.7,"6.51 µM [falling, single point]",
COc1ccc(NC(=O)CCC(=O)c2cccs2)cc1S(=O)(=O)Nc1ccccc1Cl,-7.66,,
COc1cccc(-n2c(=O)n(Cc3ccccc3)c(=O)c3[nH]cnc32)c1C,41.3,,"29.1 µM [rising, single point]"
Cc1nc2ccc(NC(=O)c3cncc(Br)c3)cc2s1,5.16,"0.0651 µM [rising, full curve, poor fit]",

SMILES,cell number change [%],AC50 [1],AC50 [2]
CC(=O)c1ccc(S(=O)(=O)NCCC(=O)OC(C)C(=O)Nc2ccc(F)cc2)cc1 (centres undefined),9.08,"32.6 µM [falling, single point]",
CCOC(=O)C1CCCN(C(=O)c2ccc([N+](=O)[O-])cc2)C1 (centres undefined),,,"0.731 µM [falling, partial curve, poor fit]"
CC(C)c1ccc(CCNC(=O)CSC(=S)N2CCCC2)cc1,2,,
C=CCSc1nc2sc3c(c2c(=O)n1CC=C)CCc1ccccc1-3,35.4,"0.58 µM [falling, partial curve, poor fit]","7.31 µM [rising, partial curve]"
FC(F)(F)c1ccccc1NC(=S)N1CCN(c2ccccn2)CC1,18,,
C#CCn1c(=NC(=O)c2ccc(S(=O)(=O)N3CCc4ccccc4C3)cc2)sc2cc(S(N)(=O)=O)ccc21,-82.9,"7.31 µM [falling, partial curve]","7.31 µM [falling, partial curve]"
Cc1ccc(C)c(S(=O)(=O)N2CCN(C(=O)Cc3ccccc3)CC2)c1,-13.4,"16.4 µM [rising, single point]",
CC(C(=O)NCc1cccs1)N1C(=O)c2ccccc2C1=O (centres undefined),17.5,,
CC1CCCCC1NC(=O)c1cc2c(=O)n3ccccc3nc2n1C (centres undefined),17.6,"1.03 µM [falling, partial curve]",
COCCn1c(C)cc(C(=O)CSc2nnnn2C2CCCC2)c1C,35.4,,"18.4 µM [rising, partial curve]"
CCOC(=O)c1c(-c2ccc(F)cc2)csc1NC(=O)c1c(-c2ccccc2)noc1C,-17.2,"16.4 µM [falling, single point]",
O=C(NCCc1ccc(F)cc1)c1cccc(NC(=O)c2ccccc2)c1,-40.7,,"11.6 µM [falling, partial curve, poor fit]"
Cc1ccc(CN2C(=O)c3ccccc3NC2c2ccccn2)cc1 (centres undefined),16,,"0.411 µM [rising, full curve, poor fit]"
CCC(C)[C@H]1CNCCN1CC1(c2ccccc2)CC1 (some centres undefined),31.4,,"0.366 µM [rising, full curve, poor fit]"
COc1ccccc1N1CCN(c2ncnc3c2oc2ccccc23)CC1,-14.2,"0.231 µM [rising, full curve, poor fit]",
CCNc1nc(OCCNC(C)=O)nc(N(C)C)n1,1.17,"0.116 µM [rising, full curve, poor fit]",
Cc1cc2nc3c(c(C(F)(F)F)n2n1)CCCC3,9.79,"16.4 µM [rising, partial curve, poor fit]",
CCOc1cccc(CNc2nnnn2C)c1,22,"29.1 µM [rising, single point]",
CCOc1ccc(C2CC(c3cccc(OC)c3OC)n3nnnc3N2)cc1Cl (centres undefined),12.4,"4.61 µM [rising, single point]","3.26 µM [rising, partial curve]"
CCOc1ccc(NC(=O)C2CCN(S(=O)(=O)c3ccc4c(c3)C(C)(C)C(=O)N4C)CC2)cc1,16.2,,

# Given as tab-separated lines: part of the list above
SMILES	cell number change [%]	AC50 [1]	AC50 [2]
COc1ccc(-n2nc(C(=O)NCC(=O)N3CCOCC3)c3ccccc3c2=O)cc1Cl	-3.97	0.58 µM [rising, single point]	
CCOC(=O)CN1CC23C=CC(O2)C(C(=O)Nc2ccc(F)cc2)C3C1=O (centres undefined)	-10.8	0.82 µM [falling, full curve, poor fit]	
CC(C)Oc1ccc(C(=O)OCC(=O)NC(=O)NC2CCCC2)cc1	-41.5	4.11 µM [falling, single point]	18.4 µM [falling, single point]
COc1ccccc1CC(=O)NCCc1ccccc1	19.2	29.1 µM [rising, single point]	
Cc1ccc(NC(=O)COC(=O)c2ccc(S(=O)(=O)NCc3ccco3)cc2)cc1	7.39	29.1 µM [falling, single point]	
CCOc1ccc(S(=O)(=O)Nc2cc(SCC(=O)O)c(O)c3ccccc23)cc1	-27.7		
Cc1onc(-c2c(Cl)cccc2Cl)c1C(=O)Nc1ccc(C(N)=O)cc1	-7.5		
COc1ccc(N2CCN(C(=O)c3ccc(-n4nc(C)cc4C)cc3)CC2)cc1		0.58 µM [rising, single point]	
CC(=O)NC12CC3CC(C1)CC(C(=O)N1CCN(C(=O)c4ccco4)CC1)(C3)C2	6.22	7.31 µM [falling, partial curve, poor fit]	6.51 µM [falling, single point]
C=CCN1C(=O)C(CC(=O)O)SC1=Nc1ccc(C(=O)O)cc1 (centres undefined)	-102		23.1 µM [falling, single point]
CCOC(=O)C1CCCN(C(=O)c2ccc([N+](=O)[O-])cc2)C1 (centres undefined)			0.731 µM [falling, partial curve, poor fit]
CC(C(=O)NCc1cccs1)N1C(=O)c2ccccc2C1=O (centres undefined)	17.5		
CC1CCCCC1NC(=O)c1cc2c(=O)n3ccccc3nc2n1C (centres undefined)	17.6	1.03 µM [falling, partial curve]	
COCCn1c(C)cc(C(=O)CSc2nnnn2C2CCCC2)c1C	35.4		18.4 µM [rising, partial curve]
CCOC(=O)c1c(-c2ccc(F)cc2)csc1NC(=O)c1c(-c2ccccc2)noc1C	-17.2	16.4 µM [falling, single point]	
Cc1ccc(CN2C(=O)c3ccccc3NC2c2ccccn2)cc1 (centres undefined)	16		0.411 µM [rising, full curve, poor fit]
CCNc1nc(OCCNC(C)=O)nc(N(C)C)n1	1.17	0.116 µM [rising, full curve, poor fit]	
